This is one part of the list.

In this experiment the target is T1, OsSMF1 (Oryza sativa, UniProt Q6ZLB0 1-436).
T1 sequence: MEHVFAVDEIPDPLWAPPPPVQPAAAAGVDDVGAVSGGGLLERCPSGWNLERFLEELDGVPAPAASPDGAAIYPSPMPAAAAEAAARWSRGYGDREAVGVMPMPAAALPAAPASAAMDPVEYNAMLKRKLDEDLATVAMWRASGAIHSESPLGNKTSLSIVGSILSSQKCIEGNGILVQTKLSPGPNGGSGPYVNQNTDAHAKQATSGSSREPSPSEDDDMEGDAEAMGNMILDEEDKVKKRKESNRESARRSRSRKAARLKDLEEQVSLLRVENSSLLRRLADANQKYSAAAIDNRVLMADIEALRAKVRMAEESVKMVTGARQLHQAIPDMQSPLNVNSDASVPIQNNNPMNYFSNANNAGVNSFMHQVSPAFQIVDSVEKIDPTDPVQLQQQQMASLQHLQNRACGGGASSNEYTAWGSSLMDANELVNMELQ
The experiment can be described thus: protein-binding microarray (RPBM); PBS, 2% BSA, 51.3 ng/ul salmon testes DNA, 50 uM zinc acetate, 200 nM TF, 25 C, 1 h; high values mean tight binding. As to conditions: protein: recombinant; tags: N-terminal polyhistidine and DsRed monomer fusion (pET32a); chain copies: 2; label: CyDye5-dUTP incorporated in the synthesized complementary strand; 3' TTTTT single-stranded linker to array surface; dsDNA, one strand shown. In short, it runs like this: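 In PBS with 2% BSA, salmon testes DNA and 50 µM zinc acetate, 200 nM protein was incubated on a custom Agilent array at 25 °C for 1 h and then washed off. The array had been made double-stranded by primer extension with Cy5-dUTP and blocked with 2% BSA. The proteins were transcription factors fused N-terminally to polyhistidine and DsRed, expressed in E. coli BL21-CodonPlus and purified on Ni–NTA. The binding signal is per-feature fluorescence intensity (arbitrary units) from an Axon 4000B scanner.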
As to “GTAGCGTGTGACGTGTGCGTCTCCGACTCCTCCGGCCGGTCGGAGTCACCTAGTGCAG”, the binding signal is 7890 fluorescence intensity (a.u.).
With “TGCTAATTGTTTGCGTGGTCATGAACTAGACCTCACTTGACGGAGTCACCTAGTGCAG”, the binding signal is 3440 fluorescence intensity (a.u.).
“CGAGAGGGCGAAGCACCAAGGCGACTCGCCACGCAAAGCGCGGAGTCACCTAGTGCAG”: the binding signal is 3510 fluorescence intensity (a.u.).
In the case of “ATCATCTCGTTTTGTGTGAAACACTTCATCTTCATCTTCACGGAGTCACCTAGTGCAG”, the binding signal was 3310 fluorescence intensity (a.u.).
With “CGAGGTCGCCGGGGAATCCTTGGGTGACGCCACCTCCGCCCGGAGTCACCTAGTGCAG” the figure was 5380 fluorescence intensity (a.u.).
With “CCTCGTCAGAGTTCAGATATATCTGTCATCCTTTCTTCCCCGGAGTCACCTAGTGCAG” the figure was 3350 fluorescence intensity (a.u.).
Next, “GGTATTGCTGTATTTATTTTGGTGTGGTTGAGAGTCTAGTCGGAGTCACCTAGTGCAG”: 4096 fluorescence intensity (a.u.).
Turning to “TCCGTTGCCGTCTCCGGCGCCGGCGGCGCTGCCACGGGGTCGGAGTCACCTAGTGCAG”, the binding signal is 4180 fluorescence intensity (a.u.).
As to “CTTAGAAACAATGGAGCAAGAGTTGGTCACCACTCAGTCACGGAGTCACCTAGTGCAG”, the binding signal was 4620 fluorescence intensity (a.u.).
“GTGATGTATGAGTGGCTGCCCTCCTGCCGCCATCCGTCGCCGGAGTCACCTAGTGCAG”: the binding signal was 3270 fluorescence intensity (a.u.).
“ATATGAAGCATAAAATGAGAGGAAAAGACAATGAGATGAGCGGAGTCACCTAGTGCAG”: the binding signal is 33400 fluorescence intensity (a.u.).
As for “GCAGCAGCAGTAGCTGCCGTCACTTCGCCACCACAGTGTTCGGAGTCACCTAGTGCAG”, the binding signal was 23700 fluorescence intensity (a.u.).
With “GGTTTCCTTTGGGGAATCTCTCTTCTTCACCGTCAAATTTCGGAGTCACCTAGTGCAG” the figure was 26600 fluorescence intensity (a.u.); with “GAGTGTGAGCGGGGTGTTACGTGTGTGGTGGCGTGTACCGCGGAGTCACCTAGTGCAG”, 7000 fluorescence intensity (a.u.); with “CACTGTTGCAGGATGCAGCCACATGGCCCTAGTGCTGCACCGGAGTCACCTAGTGCAG”, 3360 fluorescence intensity (a.u.).
As for “GACAGGCAGGGGATCACGTGGCGTAGAGGGAGGATGGTGTCGGAGTCACCTAGTGCAG”, the binding signal is 3720 fluorescence intensity (a.u.).
As to “CTGCCGCCGCCGTCATCTCCGACGCTCCTCCGTGGCGGCCCGGAGTCACCTAGTGCAG”, the binding signal is 6420 fluorescence intensity (a.u.).
With “AATGACAGGACAACGAGGACACCGTGGATATTAAAGACCCCGGAGTCACCTAGTGCAG”, the binding signal is 4140 fluorescence intensity (a.u.).
With “AGCAGCAGCAACTACACTAGTACGTAGGTACGTAGTAGGCCGGAGTCACCTAGTGCAG” the figure was 3160 fluorescence intensity (a.u.); with “TCTCTTTCTTCACACGCGTGCACCCATAAATGCACCCTTTCGGAGTCACCTAGTGCAG”, 10400 fluorescence intensity (a.u.); with “AACCCTAACCCCACCTCACCACCCTCCCCGGCGGCGGCGGCGGAGTCACCTAGTGCAG”, 3290 fluorescence intensity (a.u.).
Consider “TAATCTTCGAGTATGTATGAATAGTTTGATTACGTGCATTCGGAGTCACCTAGTGCAG”, for which the binding signal was 3950 fluorescence intensity (a.u.).
As to “GGTTTCCATAAAATACCCACTCATATAGTCATATGTCTTTCGGAGTCACCTAGTGCAG”, the binding signal was 3210 fluorescence intensity (a.u.).
As for “GCAAGCAATCCGGGTGGATTGAGTGCTAGGCGAAATTACTCGGAGTCACCTAGTGCAG”, the binding signal was 4330 fluorescence intensity (a.u.).
Next, “TTACAGCCCACTGCGGAGAAAATCTCGCCACGCCACGCGACGGAGTCACCTAGTGCAG”: 3210 fluorescence intensity (a.u.); “CCCCACTGATGATGATGATGACTCGATTCTATTCCACCGCCGGAGTCACCTAGTGCAG”: 5550 fluorescence intensity (a.u.).
For the sequence “TGCATTTATGTAAGACTTTTATGATGTTTGTAAGACGTGGCGGAGTCACCTAGTGCAG”, the binding signal was 6730 fluorescence intensity (a.u.).
Take “TTTCTGATGTGGAAAAGGTATGTGACTGTATGAAATGCAGCGGAGTCACCTAGTGCAG”: the binding signal is 3900 fluorescence intensity (a.u.).
Turning to “GGAAAGGCACATGGATTACGCGCGCGATTGAAGAAGAAATCGGAGTCACCTAGTGCAG”, the binding signal is 36400 fluorescence intensity (a.u.).
“GTCGTCGCCTCCGGCGTCAGCGCCAACCTCAGCATGGCATCGGAGTCACCTAGTGCAG”: the binding signal was 4820 fluorescence intensity (a.u.).
Turning to “GCCAATCAGAGCGCGGCGTTGGCGTCTCCCCGTCATCGCGCGGAGTCACCTAGTGCAG”, the binding signal is 3840 fluorescence intensity (a.u.).
Next, “GTACAGCAGGAATCGCTGCTGGCGTCGCTTCGTCGGTTGTCGGAGTCACCTAGTGCAG”: 65100 fluorescence intensity (a.u.); “CGGGAGGGGAGGGGAATGGATGTGGGGAGGAGAGAGACTGCGGAGTCACCTAGTGCAG”: 4600 fluorescence intensity (a.u.).
As for “GGCTTTTATGGGGCGGGCTTTCTTTGGTCAATGGTCACTACGGAGTCACCTAGTGCAG”, the binding signal is 4080 fluorescence intensity (a.u.).
With “GTTGATACCTAATCCCCTATAAAAGCCCCACCTGGGGTGACGGAGTCACCTAGTGCAG” the figure was 3570 fluorescence intensity (a.u.).
Next, “GAGCGGTGATGTGTCCTCTAATGACACGCCCGTTGACAATCGGAGTCACCTAGTGCAG”: 7080 fluorescence intensity (a.u.).
With “AGTACACACCTATGTATGTCCTATGTGGCAAAGACAAAGCCGGAGTCACCTAGTGCAG” the figure was 3920 fluorescence intensity (a.u.).
With “TCTCCGCAAATTCGTCATCTACTCCCTCGCATCGCATGGCCGGAGTCACCTAGTGCAG”, the binding signal is 4600 fluorescence intensity (a.u.).
Turning to “GGTTGGCCATGCTCCTCCCTGAAAGGAGCAACTGCCTTGGCGGAGTCACCTAGTGCAG”, the binding signal was 4280 fluorescence intensity (a.u.).
Consider “GTTGTGTTGCATGTCATGACTTAGCATTATTCAAATTGTTCGGAGTCACCTAGTGCAG”, for which the binding signal was 4660 fluorescence intensity (a.u.).
In the case of “CGCTGACTCAAACCGCCACGTCAGACAAATCGGGGTCAAACGGAGTCACCTAGTGCAG”, the binding signal was 16000 fluorescence intensity (a.u.).
For “AGCTCGGTCACCTGACGCGAACGACGCCGACGTGGACGTACGGAGTCACCTAGTGCAG”, the binding signal is 10800 fluorescence intensity (a.u.).

Source of the values: PMC7819943, “Rice protein-binding microarrays: a tool to detect cis-acting elements near promoter regions in rice”.
